Where a name gives a salt, the structure may show the parent alone. The list shows a part of the results. This data set is noisy: repeats of one test often differ as much as different tests do.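 Test system: Schistosoma mansoni schistosomula, roughly 40 per well, imaged in bright field over time and compared with wells given 0.1% DMSO. Distance read-out: the paper calls a drug a hit when its Mahalanobis distance is at least 2.47, three standard deviations above the DMSO control mean. Degeneracy is the share of worms classified opaque.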

This assay deals with Schistosoma mansoni schistosomula. In words: Mahalanobis distance of static-rate-frequency phenotype descriptors from DMSO controls (dimensionless); higher = stronger phenotypic change versus DMSO. The conditions noted are these: 10 µM; 72 h.
Turning to `CO[C@H]1/C=C/O[C@@]2(C)Oc3c(C)c(O)c4c(O)c(c(/C=N/N5CCN(C6CCCC6)CC5)c(O)c4c3C2=O)NC(=O)/C(C)=C\C=C\[C@H](C)[C@H](O)[C@@H](C)[C@@H](O)[C@@H](C)[C@H](OC(C)=O)[C@@H]1C` [Rifapentine], the Mahalanobis distance is inactive: 1.48. Turning to `CN1CCC(=C2c3ccccc3C=Cc3ccccc32)CC1` [Cyproheptadine], the Mahalanobis distance is active: 3.49.

Regarding `CC(Cc1cccc(C(F)(F)F)c1)NCCOC(=O)c1ccccc1` (centres undefined) [Benfluorex Hydrochloride], the Mahalanobis distance was inactive: 2.32. Turning to `CC(=O)S[C@@H]1CC2=CC(=O)CC[C@]2(C)[C@H]2CC[C@@]3(C)[C@@H](CC[C@@]34CCC(=O)O4)[C@H]12` [Spironolactone], the Mahalanobis distance is active: 4.26. On to `Cc1nccnc1N1CCCCC1` [Modaline Sulfate], for which the Mahalanobis distance was inactive: 2.07.

Regarding `C=C1CC[C@H](O)C/C1=C/C=C1\CCC[C@]2(C)[C@@H]([C@H](C)CCCC(C)C)CC[C@@H]12` [Cholecalciferol], the Mahalanobis distance is inactive: 1.66.

Consider `Oc1ccc2ccccc2c1` [Beta-naphthol], for which the Mahalanobis distance is active: 3.05. `CN1CCN(C2=Nc3ccccc3Oc3ccc(Cl)cc32)CC1` [Loxapine Succinate]: the Mahalanobis distance was inactive: 1.57. For `CC(C)CC(N)=O` [Isovaleramide], the Mahalanobis distance was inactive: 1.18.

In the case of `CC(=O)OCC(=O)[C@@]1(O)[C@@H](C)C[C@H]2[C@@H]3CCC4=CC(=O)C=C[C@]4(C)[C@@]3(F)[C@@H](O)C[C@@]21C` [Betamethasone Acetate], the Mahalanobis distance is inactive: 1.7.

Turning to `O=C(O)c1cn(-c2ccc(F)cc2)c2cc(N3CCNCC3)c(F)cc2c1=O` [Sarafloxacin Hydrochloride], the Mahalanobis distance was active: 2.92. On to `O=C(O)Cc1ccc(-c2ccccc2)cc1` [Felbinac], for which the Mahalanobis distance was inactive: 1.5. Regarding `CC[N+](C)(CC)CCOC(=O)C(O)(c1ccccc1)C1CCCCC1` (centres undefined) [Oxyphenonium Bromide], the Mahalanobis distance is inactive: 1.66.

On to `CC1(C)OC(=O)C(OCC2CC2)=C1c1ccc(S(C)(=O)=O)cc1` [Firocoxib], for which the Mahalanobis distance is inactive: 2.3. Consider `CCN(CC)CCOC(=O)C1(C2CCCCC2)CCCCC1` [Dicyclomine], for which the Mahalanobis distance is active: 3.11. Regarding `CCCCOCCOCCOCc1cc2c(cc1CCC)OCO2` [Piperonyl Butoxide], the Mahalanobis distance is inactive: 2.23. Turning to `CC(=O)Oc1ccccc1C(=O)Nc1ncc([N+](=O)[O-])s1` [Nitazoxanide], the Mahalanobis distance was inactive: 1.93.

Consider `CN(C)CCCN1c2ccccc2Sc2ccc(C(F)(F)F)cc21` [Triflupromazine Hydrochloride], for which the Mahalanobis distance was active: 2.5. In the case of `CC(NCCC(c1ccccc1)c1ccccc1)c1ccccc1` (centres undefined) [Fendiline Hydrochloride], the Mahalanobis distance was inactive: 2.42.

Source of the values: the supplement of paper PMC7752906.
